# Assay results reported in publication PMC7819943, “Rice protein-binding microarrays: a tool to detect cis-acting elements near promoter regions in rice”.
# This is one part of the list.
# Target: T1, OsSMF1 (Oryza sativa, UniProt Q6ZLB0 1-436)
# T1 sequence: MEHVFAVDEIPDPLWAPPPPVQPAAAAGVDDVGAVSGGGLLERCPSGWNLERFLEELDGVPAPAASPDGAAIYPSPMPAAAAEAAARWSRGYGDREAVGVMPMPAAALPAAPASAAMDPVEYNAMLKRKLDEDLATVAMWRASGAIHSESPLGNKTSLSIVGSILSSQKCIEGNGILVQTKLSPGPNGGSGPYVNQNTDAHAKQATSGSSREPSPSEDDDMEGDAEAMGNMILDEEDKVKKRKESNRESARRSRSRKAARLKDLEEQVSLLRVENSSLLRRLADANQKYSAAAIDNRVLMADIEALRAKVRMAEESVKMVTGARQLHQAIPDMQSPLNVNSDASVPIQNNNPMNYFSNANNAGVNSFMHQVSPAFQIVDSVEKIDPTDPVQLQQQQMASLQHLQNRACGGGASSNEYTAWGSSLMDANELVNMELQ
# Test: protein-binding microarray (RPBM); PBS, 2% BSA, 51.3 ng/ul salmon testes DNA, 50 uM zinc acetate, 200 nM TF, 25 C, 1 h; high values mean tight binding
# Conditions: protein: recombinant; tags: N-terminal polyhistidine and DsRed monomer fusion (pET32a); chain copies: 2; label: CyDye5-dUTP incorporated in the synthesized complementary strand; 3' TTTTT single-stranded linker to array surface; dsDNA, one strand shown
# Method in brief: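 Transcription factors were each fused at the N-terminus to a polyhistidine tag plus DsRed and expressed in E. coli BL21-CodonPlus before Ni–NTA purification. Binding to a double-stranded custom Agilent array was carried out with 200 nM protein at 25 °C for 1 h in PBS, 2% BSA, salmon testes DNA and 50 µM zinc acetate. The binding signal is per-feature fluorescence intensity, in arbitrary units, on an Axon 4000B scanner.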
row,Sequence,binding signal
1,CAATCCTCCTCCCTCGCCGCTCGCCGTGCTCCCGCTCCCGCGGAGTCACCTAGTGCAG,3220 fluorescence intensity (a.u.)
2,AGACAACACATGAAACCGGTTCCATTCCTTCCAATTCATCCGGAGTCACCTAGTGCAG,3180 fluorescence intensity (a.u.)
3,GGTTGAAGTTAATACGTGCCAAATCTATAACTTTATTCCGCGGAGTCACCTAGTGCAG,3300 fluorescence intensity (a.u.)
4,TCTCAGCCGTCGCCCCTCACACACGCACACACACTCTCTCCGGAGTCACCTAGTGCAG,3500 fluorescence intensity (a.u.)
5,GAAACCCGGCCACATCACTCCTTCCCTATGCTCCAGTGAGCGGAGTCACCTAGTGCAG,8040 fluorescence intensity (a.u.)
6,GTACTGTCACTTTGTCTTCCCCTACGCCACTTCCCACTGACGGAGTCACCTAGTGCAG,3280 fluorescence intensity (a.u.)
7,CACCCCACGTCAGCAAATACGGAGGCGCGGGGTTGACGGCCGGAGTCACCTAGTGCAG,17500 fluorescence intensity (a.u.)
8,ACTGTGGTGATGGTGTCTTTTGTTTGTCTTCTGAATTCAGCGGAGTCACCTAGTGCAG,3760 fluorescence intensity (a.u.)
9,ATGTGATGACATGATGACACGATCTGAACCTACGATTTCCCGGAGTCACCTAGTGCAG,6360 fluorescence intensity (a.u.)
10,GCCCAGGAAATAATGGATTTATGGCCCTGCAAGCAATTCACGGAGTCACCTAGTGCAG,3160 fluorescence intensity (a.u.)
11,CCCGTGGACCCCACCTGTCATCCCCAACCTCCGGCCAGCTCGGAGTCACCTAGTGCAG,3940 fluorescence intensity (a.u.)
12,TGTTAATCTGCTGTGATGACTTGTCATCTTCCACTCTGTCCGGAGTCACCTAGTGCAG,11400 fluorescence intensity (a.u.)
13,ATAAACGTGCATCCCAGCCTCTCTGTTATTATGGCTATTTCGGAGTCACCTAGTGCAG,3620 fluorescence intensity (a.u.)
14,GGTTGCTGCTGCTGCTGCTGCGGCGCTGGGGTTAGGGTTTCGGAGTCACCTAGTGCAG,3680 fluorescence intensity (a.u.)
15,CTGCTGCTGGTGCTTAATTTTGCTCGGGTTCGTGGGGTTGCGGAGTCACCTAGTGCAG,3560 fluorescence intensity (a.u.)
16,TGTGGAGTCCACGTGGGACTTAGCCGCCACATCAATAAAACGGAGTCACCTAGTGCAG,9160 fluorescence intensity (a.u.)
17,CGTTTGCCAAGCCATATTGGAGTTCGTTTGTGGTGCTTCCCGGAGTCACCTAGTGCAG,3800 fluorescence intensity (a.u.)
18,CAGGAATTGAACTATTAAGATCCATTATGTTGCTCTAAAACGGAGTCACCTAGTGCAG,3310 fluorescence intensity (a.u.)
19,AGCAAGGTGGTACTAAACTCCACATGCATGCCATTCCATGCGGAGTCACCTAGTGCAG,3890 fluorescence intensity (a.u.)
20,GGGTTGTTGTAGAATCTTGTGGATCCACTTGGCAGGGTCTCGGAGTCACCTAGTGCAG,4540 fluorescence intensity (a.u.)
21,GAATTGCCACGTAGGCGCCACGTCATATGAAGACCGAGTCCGGAGTCACCTAGTGCAG,45500 fluorescence intensity (a.u.)

# Exported bar-delimited: entries from further up.
row | Sequence | binding signal
3 | GGTTGAAGTTAATACGTGCCAAATCTATAACTTTATTCCGCGGAGTCACCTAGTGCAG | 3300 fluorescence intensity (a.u.)
10 | GCCCAGGAAATAATGGATTTATGGCCCTGCAAGCAATTCACGGAGTCACCTAGTGCAG | 3160 fluorescence intensity (a.u.)

# (continued)

row,Sequence,binding signal
1,CACGACCCACCATCATGTCATCCGTGGCTTAATGACACCCCGGAGTCACCTAGTGCAG,7910 fluorescence intensity (a.u.)
2,AACTCAGATGGGCCGGCCCGTCAACCATCCGCGTGGCCCACGGAGTCACCTAGTGCAG,5040 fluorescence intensity (a.u.)
3,CAGTATTCCTGCTACCATATCAAATCTGACTAACCTGAATCGGAGTCACCTAGTGCAG,26200 fluorescence intensity (a.u.)
4,AACAAGCCACTTGATCAAATTAGGCGCTTGTCACCAAGCACGGAGTCACCTAGTGCAG,3410 fluorescence intensity (a.u.)
5,CTTCACCTGGATCATCACCGCCGTCTCCACCTCCGGGAACCGGAGTCACCTAGTGCAG,3170 fluorescence intensity (a.u.)
6,TTGATTTCTGTTATGTATGACGTGGCAGATGACTTAGTGTCGGAGTCACCTAGTGCAG,17000 fluorescence intensity (a.u.)
7,TAGTACCAACGCTTCACCGGTGCGTTGGACACCACTTCTCCGGAGTCACCTAGTGCAG,3160 fluorescence intensity (a.u.)
8,TGCTGCTGCTGCCGCTGCTGCTGCTGGTGTGGTGGTAGGTCGGAGTCACCTAGTGCAG,3500 fluorescence intensity (a.u.)
9,CTCTATTGCAGGGTCTAACTTGTCATCTGAATTCAACATGCGGAGTCACCTAGTGCAG,4380 fluorescence intensity (a.u.)
10,GCGGCAACCCTGCGAGCCTGCAGTGACGCCGCCGCCGCCGCGGAGTCACCTAGTGCAG,3700 fluorescence intensity (a.u.)
11,AATATTCGGGGCTTTATGCGACAAGCGGAAACACCAACTTCGGAGTCACCTAGTGCAG,5580 fluorescence intensity (a.u.)
12,AACCTGCCACGTAACTGCCACATAGGACAAAACCGCCTCCCGGAGTCACCTAGTGCAG,22700 fluorescence intensity (a.u.)
13,AAACATTTGCTAATGACGGAGGTTTACCGACGGATCCTGTCGGAGTCACCTAGTGCAG,3410 fluorescence intensity (a.u.)
14,CACTACTCCCATCACGGCACACTGATTCACAGCACACAGTCGGAGTCACCTAGTGCAG,3820 fluorescence intensity (a.u.)
15,CCCTGTGCCATGATACGTGTCTATCGATGCTCTGTGTATACGGAGTCACCTAGTGCAG,7130 fluorescence intensity (a.u.)
16,GCAAGAAGACTTTGTCAGAAATCAGAACATGCCTAGGACCCGGAGTCACCTAGTGCAG,26700 fluorescence intensity (a.u.)
17,CAACATAGGCCGGTGATGACGAGGGAGACAGCACCATCGGCGGAGTCACCTAGTGCAG,3370 fluorescence intensity (a.u.)
18,TTGATCTGCGAATTTCGCGGGGCCATCATCCAGTTGGCACCGGAGTCACCTAGTGCAG,3380 fluorescence intensity (a.u.)
19,GAGTATGTTACATGCGTCATCCTTTAAAGGGTGTCGAAGGCGGAGTCACCTAGTGCAG,3870 fluorescence intensity (a.u.)
20,GGACTCTGGGTAGAGGCAGAGCAGTGCACCACGTGTACGCCGGAGTCACCTAGTGCAG,4280 fluorescence intensity (a.u.)
21,CCTAAAGTGGAGAGGCCAGGTCATTCCTCTCGAGCGACGGCGGAGTCACCTAGTGCAG,3880 fluorescence intensity (a.u.)
